{"sequences": {"note": "Sequences of proteins named here, by UniProt entry; tags and fusion partners are left off.", "UniProt P16473, whole entry": "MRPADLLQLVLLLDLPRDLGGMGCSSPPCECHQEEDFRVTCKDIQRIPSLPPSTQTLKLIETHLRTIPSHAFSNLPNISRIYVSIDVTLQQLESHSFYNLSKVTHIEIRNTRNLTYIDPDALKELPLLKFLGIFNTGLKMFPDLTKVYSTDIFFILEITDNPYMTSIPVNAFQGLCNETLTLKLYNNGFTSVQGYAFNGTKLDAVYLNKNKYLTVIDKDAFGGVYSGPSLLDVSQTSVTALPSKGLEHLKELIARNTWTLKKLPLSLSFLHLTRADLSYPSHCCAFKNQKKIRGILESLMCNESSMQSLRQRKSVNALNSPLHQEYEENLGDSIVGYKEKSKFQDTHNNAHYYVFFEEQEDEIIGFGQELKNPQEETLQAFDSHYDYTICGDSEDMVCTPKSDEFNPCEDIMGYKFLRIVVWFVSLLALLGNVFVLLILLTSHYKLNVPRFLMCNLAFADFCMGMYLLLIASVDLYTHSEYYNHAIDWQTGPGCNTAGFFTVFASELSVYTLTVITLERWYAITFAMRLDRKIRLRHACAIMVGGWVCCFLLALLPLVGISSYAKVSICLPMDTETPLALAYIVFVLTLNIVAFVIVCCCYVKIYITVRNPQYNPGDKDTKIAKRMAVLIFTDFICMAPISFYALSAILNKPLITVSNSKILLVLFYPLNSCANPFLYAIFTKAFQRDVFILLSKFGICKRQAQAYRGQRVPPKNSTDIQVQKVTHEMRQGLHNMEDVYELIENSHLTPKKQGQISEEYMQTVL"}, "source": "PubChem BioAssay AID926", "about": "(National Center for Advancing Translational Sciences (NCATS), 2007)", "note": "About 350 (0.48%) of roughly 73,000 compounds were called active. These results got no clear call from the source, so the numbers are uncertain. Calls come from the whole dose curve; as a rule, active = well fitted activation curve with a large enough effect in the main read-out, with a control signal flat (not every such curve was filed as active); inconclusive = small, poorly fitted or top-dose-only effect, or a change in a side signal; inactive = no such curve, though single readings can be large or run the other way; reference of the percent scale not stated here. Potency is the fitted concentration of half-maximal effect."}
{"molecular_target": "Thyrotropin receptor (Homo sapiens) (UniProt P16473)", "experiment": "qHTS Assay for Agonists of the Thyroid Stimulating Hormone Receptor;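 note: the control signal comes from parental cells without the receptor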", "details": "HEK293-CNG-TSHR cells (CNG channel as cAMP sensor), membrane potential dye, cAMP"}
{"molecule": "CCOc1ncccc1C(=O)NCC1(N2CCOCC2)CCCCC1", "Potency": "inconclusive: 25.1 µM"}
